According to publication PMC6549159:
Results are given in words; binding and its absence hold for the method and conditions named. In cells and extracts the contact can be indirect. Binding can be weak; no strength is given.

By UniProt entry, the sequences of proteins in these tests, tags left out. Where a name states a change or a piece, a line headed by the entry shows the natural chain unless it says otherwise. Residues count along the entry.
UniProt O35129, residues 89-299: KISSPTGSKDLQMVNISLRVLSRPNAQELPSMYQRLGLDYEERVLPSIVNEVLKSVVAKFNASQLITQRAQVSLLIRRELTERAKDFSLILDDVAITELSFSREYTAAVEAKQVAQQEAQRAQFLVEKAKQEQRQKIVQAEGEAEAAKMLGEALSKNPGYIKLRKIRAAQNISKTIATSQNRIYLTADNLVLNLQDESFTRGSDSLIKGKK
UniProt O08808: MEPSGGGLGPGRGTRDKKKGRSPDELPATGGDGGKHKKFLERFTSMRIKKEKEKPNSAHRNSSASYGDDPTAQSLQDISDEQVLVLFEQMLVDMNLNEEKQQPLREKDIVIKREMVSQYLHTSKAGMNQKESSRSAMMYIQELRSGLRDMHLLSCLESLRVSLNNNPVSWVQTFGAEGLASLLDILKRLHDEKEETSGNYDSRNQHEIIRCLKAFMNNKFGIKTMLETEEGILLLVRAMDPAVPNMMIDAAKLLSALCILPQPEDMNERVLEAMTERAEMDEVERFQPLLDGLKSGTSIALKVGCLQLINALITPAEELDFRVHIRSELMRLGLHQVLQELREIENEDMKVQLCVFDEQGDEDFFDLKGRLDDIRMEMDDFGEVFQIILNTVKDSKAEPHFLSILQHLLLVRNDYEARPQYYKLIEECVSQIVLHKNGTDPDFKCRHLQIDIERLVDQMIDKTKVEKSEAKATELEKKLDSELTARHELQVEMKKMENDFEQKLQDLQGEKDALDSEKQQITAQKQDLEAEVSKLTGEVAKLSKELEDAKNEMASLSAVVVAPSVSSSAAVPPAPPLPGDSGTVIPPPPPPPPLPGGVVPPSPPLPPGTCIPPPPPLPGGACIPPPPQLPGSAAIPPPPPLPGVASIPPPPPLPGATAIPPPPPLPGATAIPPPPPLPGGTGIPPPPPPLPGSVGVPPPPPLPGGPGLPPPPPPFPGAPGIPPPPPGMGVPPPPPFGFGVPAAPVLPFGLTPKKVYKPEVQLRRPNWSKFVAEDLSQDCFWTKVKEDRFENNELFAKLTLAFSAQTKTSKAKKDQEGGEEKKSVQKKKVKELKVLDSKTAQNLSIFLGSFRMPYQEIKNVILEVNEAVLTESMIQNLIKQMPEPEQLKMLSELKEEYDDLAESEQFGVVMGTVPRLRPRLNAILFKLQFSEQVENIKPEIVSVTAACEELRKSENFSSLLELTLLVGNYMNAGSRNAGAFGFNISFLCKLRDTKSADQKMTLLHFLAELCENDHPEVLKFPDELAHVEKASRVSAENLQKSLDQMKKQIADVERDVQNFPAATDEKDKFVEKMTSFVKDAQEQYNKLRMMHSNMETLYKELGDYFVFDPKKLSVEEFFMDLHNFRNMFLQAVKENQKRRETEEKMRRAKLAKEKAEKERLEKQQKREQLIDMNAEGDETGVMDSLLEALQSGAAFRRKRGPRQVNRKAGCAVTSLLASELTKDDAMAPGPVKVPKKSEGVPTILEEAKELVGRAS

Target: flag-tagged Phb2-Y2H (aa 89-299) (mouse) (UniProt O35129)
Assay: co-IP; HEK293T co-transfected with flag-tagged Phb2 construct and GFP-tagged mDia1 construct; IP with anti-flag antibody, blot with anti-GFP

binding: binds
Substance: GFP-tagged mDia1ΔN3(HindIII) (from UniProt O08808) (domain or fragment)
